From the supplement of paper PMC10338343
± gives the standard deviation. The list shows a part of the results. Many of these values have a large error.

test system: EfPiwi piRISC loaded with L1MC piRNA (26 nt); test: pre-steady-state target cleavage rate (min^-1); guide: L1MC piRNA 5'p-UAACUAAAUACUAUGCAAGCUGUAGG; MIWI and MILI are mouse PIWI proteins and EfPiwi is from a freshwater sponge; tags in brackets are library labels; higher = faster piRNA-guided slicing of the target; conditions: auxiliary factor: none (no Gtsf1)
Outline: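 A transcribed, DNA-blocked target RNA library (0.1 nM) and 1 nM active affinity-purified piRISC bearing one synthetic guide were incubated in HEPES–potassium acetate buffer at 33 °C for 0–8 or 0–960 min, either with or without 500 nM GTSF1 partner protein. Uncleaved targets were sequenced, normalised to depth and to weakly complementary targets, and pooled over three trials, with k3 capped at 0.0001 min^-1. The pre-steady-state cleavage rate was derived with a burst-and-steady-state fit.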

Row | Sequence | pre-steady-state target cleavage rate
1 | UCCUGGUACAGCUUGCAUAGUAAUUACAAA | 0.00018 ± 0.051
2 | UCCUGGAUGUCGAACGUAUGUAUAUAGUAA | 0.000106 ± 0.052
3 | UCCUGGAUGUCGAACGUUAGAAUUUUGUUA | < 0.0001
4 | UCCUCCUACAGCUUGCAUACAUUUUAGUAA | 0.000314 ± 0.015
5 | UCCUGGAUGUCGAACGAAAGUAUUUAGUAA | 0.000114 ± 0.046
